The text below walks through data of article PMC11866873.

Sequences of proteins named here, by UniProt entry; tags and fusion partners are left off.
UniProt Q6UXN9: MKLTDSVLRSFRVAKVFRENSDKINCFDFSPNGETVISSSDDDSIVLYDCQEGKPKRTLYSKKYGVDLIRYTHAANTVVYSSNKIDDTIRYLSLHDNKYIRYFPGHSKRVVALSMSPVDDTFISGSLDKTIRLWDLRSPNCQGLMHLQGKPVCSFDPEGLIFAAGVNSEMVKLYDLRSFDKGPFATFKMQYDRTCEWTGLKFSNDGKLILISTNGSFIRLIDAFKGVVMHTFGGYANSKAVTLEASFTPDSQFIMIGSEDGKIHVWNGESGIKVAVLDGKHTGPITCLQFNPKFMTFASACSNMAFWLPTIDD

Results are given in words; binding and its absence hold for the method and conditions named. In cells and extracts the contact can be indirect. Some binding calls cover weakened binding; strength is not graded here.

The target of the test is T1, Serine/threonine-protein phosphatase 1 regulatory subunit 10 (human (endogenous in MDA-MB-231)) (UniProt Q96QC0).
T1 sequence: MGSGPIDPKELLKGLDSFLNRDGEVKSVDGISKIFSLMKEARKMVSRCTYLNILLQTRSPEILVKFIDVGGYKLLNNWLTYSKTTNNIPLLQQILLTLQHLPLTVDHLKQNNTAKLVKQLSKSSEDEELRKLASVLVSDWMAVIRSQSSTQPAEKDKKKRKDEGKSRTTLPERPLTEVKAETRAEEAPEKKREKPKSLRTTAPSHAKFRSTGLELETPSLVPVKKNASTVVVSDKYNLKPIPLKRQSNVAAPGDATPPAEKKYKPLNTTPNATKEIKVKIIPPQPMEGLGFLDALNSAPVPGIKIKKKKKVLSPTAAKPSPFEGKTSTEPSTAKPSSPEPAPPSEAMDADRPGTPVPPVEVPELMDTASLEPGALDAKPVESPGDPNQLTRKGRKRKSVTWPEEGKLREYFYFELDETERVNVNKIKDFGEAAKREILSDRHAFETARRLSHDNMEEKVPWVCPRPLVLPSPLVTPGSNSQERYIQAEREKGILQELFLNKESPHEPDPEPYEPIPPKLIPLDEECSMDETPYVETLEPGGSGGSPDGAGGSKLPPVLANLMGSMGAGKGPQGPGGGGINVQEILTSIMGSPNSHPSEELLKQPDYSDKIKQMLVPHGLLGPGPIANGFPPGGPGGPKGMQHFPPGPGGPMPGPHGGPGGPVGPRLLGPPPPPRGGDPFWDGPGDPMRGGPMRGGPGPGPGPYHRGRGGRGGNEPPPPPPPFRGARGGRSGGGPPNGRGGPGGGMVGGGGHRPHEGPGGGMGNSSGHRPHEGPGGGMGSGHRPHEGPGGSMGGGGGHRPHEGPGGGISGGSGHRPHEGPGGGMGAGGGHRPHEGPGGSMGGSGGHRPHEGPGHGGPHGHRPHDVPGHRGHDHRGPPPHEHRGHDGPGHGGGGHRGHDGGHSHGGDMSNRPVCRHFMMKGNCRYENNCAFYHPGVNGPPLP
In words: co-IP; lysates of control and AEP KD MDA-MB-231 cells (20 mM Tris pH 7.5, 150 mM NaCl, 1 mM EDTA, 1% NP40); anti-PPP1R10 on Dynabeads Protein G, 45 min at RT; immunoblot for WDR82. A general note: A western blot detects proteins with antibodies after separation by electrophoresis.

On to “WD repeat-containing protein 82 (from UniProt Q6UXN9 1-313)”, for which the binding entry was “binds”.
